Here are results for 1 molecule from patent publication US20040071698A1 (UAB RESEARCH FOUNDATION, published 2004).

No constants are given. Whether binding was seen depends on the method and setting. A result given as binding can be weak or reduced; the word gives no strength.

Test [1] addresses affinity purified epidermal growth factor receptor (EGFR) antigen (Sigma) (UniProt P00533). Briefly: ELISA, culture medium on coated EGFR.
The target is the same in test [2]. Briefly: ELISA, culture medium on coated EGFR, anti-myc and anti-mouse-HRP detection. (An ELISA detects its analyte on a solid surface through an enzyme-linked reagent.)

B1: secretory anti-EGFR scFv clone 6 secreted by stably transfected U87MG.6.34.A8 cells (clone p6.34) (scFv, not shown: small tags and cut ends)
scFv: EVQLVESGGGLVQPGGSLRLSCSASGFTFSSYAMHWVRQAPGKGLEYVSAISSNGGSTYYADSVKGRFTISRDNSKNTLYLQMSSLRAEDTAVYYCVKDVGGSSWYWADYFDYWGQGTLVTVSSGSASAPKLEEGEFSEARVQSVLTQPPSLSVSPGQTASITCSGDKLGDKYASWYQQKPGQSPVLVIYQDRKRPSGIPERFSGSNSGNTATLTISGTQAMDEADYYCQAWDSSTPYVFGTGTKVTVLGQPKANPTVTLFPPSSAAA
notes: The scFv insert was moved from pSEX81 as a Bpu1102I/NotI fragment behind an Ig kappa leader; also called scFv p6.34; clone p6.34 scFv
B1: the binding entry in test [1] and in test [2] was “binds” throughout.
